A: 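Assay of Toxoplasma gondii numbers, read through their beta-galactosidase reporter with a colour substrate. Compounds at 10 µM. Higher reads as fewer parasites (inferred from which compounds were picked for retests). Size under these conditions: about 67,000 compounds, about 260 of them at 50% or above in at least one test.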
B: 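Cell assay of Leishmania donovani living inside macrophages; the read-out is not stated. Compounds at 30 µM. The record gives no direction; compounds that gave an IC50 in retests scored well above the rest, so higher reads as stronger inhibition. Of about 69,000 compounds tested this way, about 1,000 (1.5%) reached 50% or more in at least one test.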

Each number is a percent effect as filed. The record does not define 0% and 100%; most values in the screen are far below 50% and negative numbers occur (in some assays of this library far below -100). This is an unselected part of the compounds tested. Two or more numbers in one place are separate tests of the same structure; such repeats can differ widely.

* Cn1ccc2ccc(C(=O)N3CCC[C@H]3C(=O)N3CCOCC3)cc21 : A: -1.574%; B: -3.426%
* [H][C@]12CCN(C(=O)NC3CCCC3)CC[C@@]1([H])S(=O)(=O)N(C)C2 : A: -2.271%; B: -10.98%
* COCCn1nc(C(=O)N(C)Cc2cnn(C)c2)ccc1=O : A: 1.559%; B: -5.469%
* CCC(C)NC(=O)c1sccc1-n1cnnn1 (centres undefined) : A: 24.86%; B: -8.835%
* COCC1CC2(CCN(Cc3nccn3C)CC2)CN1c1ncccn1.O=C(O)C(F)(F)F (centres undefined) : A: 1.746%; B: 11.88%
* CS(=O)(=O)C1(CNCc2cccc(-n3cccn3)c2)CCOCC1 : A: 6.409%; B: 17.97%
* Fc1ccc(-c2cnc(CNC3CCc4ncnn4C3)o2)cc1 (centres undefined) : A: -4.289%; B: 4.254%
* Cl.O=C(NCc1cccc(Cl)c1)C1=NOC2(CCNC2)C1 (centres undefined) : A: 0.1784%; B: 12.64%
* CCCNC(=O)c1cc(C(C)C)nc(N2CCCCC2)n1 : A: 10.3%; B: -40%
* CN(C)c1nc(CNC(=O)Nc2cccc([S+](C)[O-])c2)cs1 (centres undefined) : A: -0.1698%; B: 16.38%
* CCC(CO)NC(=O)c1cc(COc2ccc(OC)cc2Cl)[nH]n1 (centres undefined) : A: 18.86%; B: 0.6007%
* CCc1cccc(CC)c1NC(=O)c1ccccc1N(C)S(C)(=O)=O : A: 3.358%; B: -13.69%
* CCN1C(=O)CCC12CCCN(Cc1ccc(F)cc1)CC2.O=C(O)C(F)(F)F (centres undefined) : A: -21.35%; B: 6.444%
* Cc1ccc(CSc2ncc(Br)c(C(=O)O)n2)cc1 : A: 12.8%; B: 18.47%
* Cl.Cl.O[C@@H]1C[C@@](CNCC2CCCC2)(COc2cccnc2)C[C@@H]1O : A: -0.8512%; B: 10.47%
* Cc1ncsc1CNc1ccn(Cc2ccccc2)n1 : A: 1.658%; B: 3.555%
* Cc1nc(C(C)(C)C)sc1C(=O)NCCn1ccnc1 : A: -7.782%; B: 10.49%
* CCc1cc(NC(=O)c2cccc(OCC(F)(F)F)n2)[nH]n1 : A: -9.342%; B: -3.1%
* CCCc1n[nH]c(C2CN(C(=O)C3=COCCC3)CCO2)n1 (centres undefined) : A: -4.331%; B: 24.42%
* Cc1nc(C(=O)N2CCN(S(=O)(=O)N(C)C)CC2)c(-c2ccccc2)s1 : A: 3.293%; B: -7.771% and 27.42%
* Cc1cc(-c2cc3nc(C)c(C)c(NCC4COCCO4)n3n2)no1 (centres undefined) : A: 11.22%; B: -24.36%
* COc1cccc2c1OCC(Cc1cc(C(=O)N3CCCC3)ccn1)C2 (centres undefined) : A: -1.038%; B: 20.15%
* CC(=O)N1CCC2(CCN(C(=O)c3ccc(F)c(C(F)(F)F)c3)C2)C1 (centres undefined) : A: -0.05945%; B: 0.5719%
* Cc1nn(C)c(N(C)C)c1CNCc1cccnc1N1CCOCC1 : A: -14.27%; B: -35.88%
* [H][C@@]12C[C@H](C(=O)NC3CCC3)[C@@]([H])(CN(C(=O)Nc3ccc(F)cc3)C1)O2 : A: -0.2876%; B: 5.137%
* Cn1c2c(ccc1=O)CC(Nc1ncc(F)cn1)CC2.O=C(O)C(F)(F)F (centres undefined) : A: 0.1291%; B: 11.91%

3 of the entries, repeated:

compound,A,B
CCc1cc(NC(=O)c2cccc(OCC(F)(F)F)n2)[nH]n1,-9.342,-3.1
COCC1CC2(CCN(Cc3nccn3C)CC2)CN1c1ncccn1.O=C(O)C(F)(F)F (centres undefined),1.746,11.88
CCCc1n[nH]c(C2CN(C(=O)C3=COCCC3)CCO2)n1 (centres undefined),-4.331,24.42

The values are deposited in ChEMBL (CHEMBL3988442, “University of Dundee, Small-Polar-MMV Screening Library” (2021)).